Residue numbers refer to the chain shown, from its start. No constants are given. Whether binding was seen depends on the method and setting. Binding calls can cover weak binding; strength is not graded here. For some of these results: Binding seen in cells or lysates may run through a third protein. For some of these results: Tags and fused reporters may be left off the sequences shown.
Assays:
[1] = biological target: T1, StREM1.3^(S74D T86D S91D) phosphomimic variant, split-ubiquitin yeast two-hybrid bait (Solanum tuberosum) (UniProt P93788); experiment: two-hybrid
T1 sequence: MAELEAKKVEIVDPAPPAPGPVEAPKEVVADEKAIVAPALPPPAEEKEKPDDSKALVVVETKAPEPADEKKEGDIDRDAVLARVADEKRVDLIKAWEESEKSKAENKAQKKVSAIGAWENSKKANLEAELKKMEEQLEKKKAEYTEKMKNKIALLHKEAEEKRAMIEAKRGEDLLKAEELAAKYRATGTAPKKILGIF

[2] = biological target: T2, GFP-StREM1.3 (Solanum tuberosum) (UniProt P93788); experiment: co-IP
T2 sequence: T1 sequence with D74S, D86T, D91S

| binding [2] | Substance | binding [1] |
| --- | --- | --- |
| – | Delta tonoplast integral protein (NbTIP2;1) (Nicotiana benthamiana) | binds |
| binds | RFP-StADF2 (Solanum tuberosum actin depolymerizing factor 2) | – |
| – | Autophagy 8i (NbATG8i) (Nicotiana benthamiana) | binds |
| – | Plasma membrane intrinsic protein 1C (NbPIP1C) (Nicotiana benthamiana) | binds |
| – | Calreticulin 3 (NbCRT3) (Nicotiana benthamiana) | binds |
| – | Metallothionein 2B (NbMT2B) (Nicotiana benthamiana) | binds |
| – | N. benthamiana Actin Depolymerizing Factor 3 (NbADF3) (Nicotiana benthamiana) | binds |

From publication doi:10.1101/2023.01.25.525625
